Reference: paper PMC4313521
Results are given in words; binding and its absence hold for the method and conditions named. In cells and extracts the contact can be indirect. Some results given as binding are weak or reduced against the parent protein; the word gives no strength.

The chains behind the UniProt entries cited, without tags or fusion partners. Residues count along the entry.
UniProt Q99683: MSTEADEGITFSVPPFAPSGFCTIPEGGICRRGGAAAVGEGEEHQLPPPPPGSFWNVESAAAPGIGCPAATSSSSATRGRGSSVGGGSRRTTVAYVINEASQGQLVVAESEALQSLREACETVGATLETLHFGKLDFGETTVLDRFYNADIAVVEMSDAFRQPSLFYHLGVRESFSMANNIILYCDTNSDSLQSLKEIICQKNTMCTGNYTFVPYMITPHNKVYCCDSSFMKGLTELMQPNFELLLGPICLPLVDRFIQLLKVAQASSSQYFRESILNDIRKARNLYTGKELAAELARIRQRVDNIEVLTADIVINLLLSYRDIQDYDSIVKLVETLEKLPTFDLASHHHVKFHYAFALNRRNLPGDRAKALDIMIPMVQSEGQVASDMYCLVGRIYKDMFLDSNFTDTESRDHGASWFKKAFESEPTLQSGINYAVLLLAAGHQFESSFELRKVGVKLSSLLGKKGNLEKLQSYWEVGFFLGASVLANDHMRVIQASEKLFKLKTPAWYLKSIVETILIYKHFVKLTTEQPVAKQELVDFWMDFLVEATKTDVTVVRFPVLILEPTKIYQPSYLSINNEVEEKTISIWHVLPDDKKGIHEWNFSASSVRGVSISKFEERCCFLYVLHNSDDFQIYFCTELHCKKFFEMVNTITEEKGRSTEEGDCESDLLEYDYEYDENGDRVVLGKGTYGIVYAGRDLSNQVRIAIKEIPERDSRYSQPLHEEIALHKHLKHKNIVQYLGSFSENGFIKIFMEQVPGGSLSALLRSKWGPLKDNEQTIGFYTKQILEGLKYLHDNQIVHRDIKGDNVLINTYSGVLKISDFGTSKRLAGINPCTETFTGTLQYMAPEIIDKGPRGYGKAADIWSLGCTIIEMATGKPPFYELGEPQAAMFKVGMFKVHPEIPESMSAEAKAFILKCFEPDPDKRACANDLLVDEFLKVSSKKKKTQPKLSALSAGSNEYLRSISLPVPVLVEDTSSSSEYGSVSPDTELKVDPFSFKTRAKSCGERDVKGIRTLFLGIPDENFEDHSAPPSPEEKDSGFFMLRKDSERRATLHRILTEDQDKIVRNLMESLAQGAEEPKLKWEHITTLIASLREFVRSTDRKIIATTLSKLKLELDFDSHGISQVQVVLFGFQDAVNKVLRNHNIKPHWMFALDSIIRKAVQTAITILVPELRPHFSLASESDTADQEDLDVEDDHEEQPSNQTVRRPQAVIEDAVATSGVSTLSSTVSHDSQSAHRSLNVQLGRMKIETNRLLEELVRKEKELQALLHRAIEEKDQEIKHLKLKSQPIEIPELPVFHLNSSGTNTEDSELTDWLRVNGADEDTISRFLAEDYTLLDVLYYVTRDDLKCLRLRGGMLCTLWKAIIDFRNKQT
UniProt O75460, residues 19-977: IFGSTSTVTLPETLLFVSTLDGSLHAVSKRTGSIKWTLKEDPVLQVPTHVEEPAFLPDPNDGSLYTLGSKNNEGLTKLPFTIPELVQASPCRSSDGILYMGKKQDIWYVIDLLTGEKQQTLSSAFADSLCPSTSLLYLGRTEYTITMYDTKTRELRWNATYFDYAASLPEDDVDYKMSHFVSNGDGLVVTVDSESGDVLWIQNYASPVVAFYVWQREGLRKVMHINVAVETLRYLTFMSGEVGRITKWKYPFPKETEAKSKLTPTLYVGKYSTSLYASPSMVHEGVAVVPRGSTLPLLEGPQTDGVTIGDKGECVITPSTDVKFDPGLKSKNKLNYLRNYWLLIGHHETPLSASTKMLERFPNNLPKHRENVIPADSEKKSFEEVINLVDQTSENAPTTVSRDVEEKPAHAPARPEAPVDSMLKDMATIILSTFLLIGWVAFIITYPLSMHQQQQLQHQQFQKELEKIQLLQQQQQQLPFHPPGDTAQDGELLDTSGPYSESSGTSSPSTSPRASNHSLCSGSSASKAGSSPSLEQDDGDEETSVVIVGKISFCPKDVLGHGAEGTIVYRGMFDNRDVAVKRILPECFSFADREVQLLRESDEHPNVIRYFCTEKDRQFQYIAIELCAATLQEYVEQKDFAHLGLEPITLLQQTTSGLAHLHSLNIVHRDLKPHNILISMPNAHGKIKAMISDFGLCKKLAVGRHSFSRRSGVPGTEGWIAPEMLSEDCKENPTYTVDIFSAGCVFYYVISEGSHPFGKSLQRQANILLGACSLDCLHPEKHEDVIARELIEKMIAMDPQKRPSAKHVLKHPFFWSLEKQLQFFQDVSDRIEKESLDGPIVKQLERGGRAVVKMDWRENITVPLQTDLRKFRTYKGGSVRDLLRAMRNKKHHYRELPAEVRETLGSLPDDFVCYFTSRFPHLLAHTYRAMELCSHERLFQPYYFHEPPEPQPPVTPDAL

Biological target: apoptosis signal-regulating kinase 1 (ASK1) (human (endogenous in H1299)) (UniProt Q99683)
Assay: co-IP; H1299 cells treated without or with 5 uM PPE8 for 2 h; 500 ug lysate (50 mM Tris pH 7.2, 150 mM NaCl, 1 mM EDTA, 1% triton X-100) incubated with 2 ug ASK1 antibody and affinity ligand overnight at 4 C (catch and release system); eluate blotted with IRE1 antibody

For “inositol-regulating enzyme 1 (IRE1) (from UniProt O75460 19-977)”, the binding was “binds”.
